In patent US20220289816A1, “IMMUNOTHERAPY WITH B*07 RESTRICTED PEPTIDES AND COMBINATION OF PEPTIDES AGAINST CANCERS AND RELATED METHODS” (Immatics Biotechnologies GmbH, priority 2018, published 2022):
For part of these data: For expression read-outs the peptide stands for its source gene, whose mRNA was measured; the gene is not named for every peptide.

Assays:
[1] = tested on: source genes of the peptides (mRNA); assay: Expression profiling of genes encoding the peptides (RNAseq of tumor and normal tissue RNA); design: species or system human; conditions: for Gene Expression in tumor samples: very highly over-expressed (+++): tumor entities in which the source gene of the peptide is very highly over-expressed compared to a panel of normal tissues (RNAseq)
[2] = tested on: tumor tissue samples and normal tissue samples (HLA-B*07 positive); assay: Identification and quantitation of tumor associated peptides presented on the cell surface (HLA immunoprecipitation, label-free LC-MS); design: species or system human; conditions: for Peptide Presentation on cancer entities: cancer entities on which the peptide was found presented (abbreviations in table head)
[3] = tumor entities in which the source gene of the peptide is highly over-expressed compared to a panel of normal tissues (RNAseq)
[4] = tumor entities in which the source gene of the peptide is over-expressed compared to a panel of normal tissues (RNAseq)
[5] = tumor types in which the peptide's source gene is highly over-expressed compared to a panel of normal tissues, RNAseq
[6] = tumor types in which the peptide's source gene is over-expressed compared to a panel of normal tissues, RNAseq

“189: peptide found in APOB (gene looked up) (QPQCSTHIL; listed as Homo sapiens) [compound 189]” was tested, and the “Gene Expression in tumor samples: Highly over-expressed (++)” value [1, 3] was “HCC” and the “Peptide Presentation on cancer entities” value ([2]; Table 8a) was “CCC, HCC, OSCAR”.

In the case of “186: peptide found in GRP (gene looked up) (VPLPAGGGTVLT; listed as Homo sapiens) [compound 186]”, the “Gene Expression in tumor samples: Highly over-expressed (++)” value [1, 3] is reported as “SCLC”.

With “88: peptide found in MMP26 (gene looked up) (KPSAVKDSIY; listed as Homo sapiens) [compound 88]” the “Gene Expression in tumor samples: Highly over-expressed (++)” value [1, 3] was “PRCA, SCLC”, the “Gene Expression in tumor samples: very highly over-expressed (+++)” value [1] was “UEC” and the “Peptide Presentation on cancer entities” value ([2]; Table 8a) was “HNSCC, RCC”.

“119: peptide found in MYCN (gene looked up) (KATEYVHSL; listed as Homo sapiens) [compound 119]” was tested, and the “Gene Expression in tumor samples: Highly over-expressed (++)” value [1, 3] was “AML, UEC”, the “Gene Expression in tumor samples: over-expressed (+)” value (from here on “Gene Expression … over-expressed (+)”) [1, 4] was “GBM, MEL, OC, SCLC, UBC” and the “Peptide Presentation on cancer entities” value ([2]; Table 8a) was “CRC, UEC”.

“181: peptide found in ADAM12 (gene looked up) (LPVSPARAL; listed as Homo sapiens) [compound 181]” was tested, and the “Gene Expression in tumor samples: Highly over-expressed (++)” value [1, 3] was “BRCA, HNSCC, OSCAR”, the “Gene Expression … over-expressed (+)” value [1, 4] was “CCC, CRC, GBC, GBM, GC, MEL, NHL, NSCLCadeno, NSCLCother, NSCLCsquam, OC, PACA, UBC, UEC” and the “Peptide Presentation on cancer entities” value ([2]; Table 8a) was “HNSCC, NSCLCadeno, NSCLCsquam, OSCAR”.

For “92: peptide found in ENPP3 (gene looked up) (TSPLPPTV; listed as Homo sapiens) [compound 92]”, the “Gene Expression in tumor samples: Highly over-expressed (++)” value [1, 3] was “RCC” and the “Peptide Presentation on cancer entities” value ([2]; Table 8a) was “AML, HNSCC”.

“196: peptide found in EGFR (gene looked up) (RPSGTAGAAL; listed as Homo sapiens) [compound 196]” was tested, and the “Gene Expression in tumor samples: Highly over-expressed (++)” value [1, 3] was “GBM” and the “Peptide Presentation on cancer entities” value ([2]; Table 8a) was “HNSCC, NSCLCsquam, RCC”.

With “6: peptide found in MMP12 (gene looked up) (LPLNSSTSL; listed as Homo sapiens) [compound 6]” the “Gene Expression in tumor samples: Highly over-expressed (++)” value [1, 3] was “CCC, CRC, GC, HNSCC, MEL, NHL, NSCLCadeno, OC, OSCAR, PACA, UBC, UEC”, the “Gene Expression … over-expressed (+)” value [1, 4] was “BRCA, HCC, RCC” and the “Gene Expression in tumor samples: very highly over-expressed (+++)” value [1] was “GBC, NSCLCother, NSCLCsqua; m,SCLC”. For the same substance, the “Peptide Presentation on cancer entities” value ([2]; Table 8a) was “SCLC”.

For “217: peptide found in APOB (gene looked up) (SPGDKRLAAYL; listed as Homo sapiens) [compound 217]”, the “Gene Expression in tumor samples: Highly over-expressed (++)” value [1, 3] was “HCC” and the “Peptide Presentation on cancer entities” value ([2]; Table 8a) was “CCC, HCC”.

With “481: peptide found in ADAM12 (gene looked up) (SPARALLLALA; listed as Homo sapiens) [compound 481]” the “Gene Expression in tumor samples: Highly over-expressed (++)” value [1, 5] was “BRCA, HNSCC, OSCAR”, the “Gene Expression … over-expressed (+)” value [1, 6] was “CCC, CRC, GBC, GBM, GC, MEL, NHL, NSCLCadeno, NSCLCother, NSCLCsquam, OC, PACA, UBC, UEC” and the “Peptide Presentation on cancer entities” value ([2]; Table 8b) was “HNSCC”.

In the case of “3: peptide found in SLC6A3 (gene looked up) (MPYVVLTAL; listed as Homo sapiens) [compound 3]”, the “Gene Expression in tumor samples: Highly over-expressed (++)” value [1, 3] is reported as “NSCLCadeno”, the “Gene Expression … over-expressed (+)” value [1, 4] is reported as “NSCLCsquam, SCLC” and the “Gene Expression in tumor samples: very highly over-expressed (+++)” value [1] is reported as “HCC”. The “Peptide Presentation on cancer entities” value ([2]; Table 8a) was “RCC”.

For “38: peptide found in FLT3 (gene looked up) (RPSFPNLTSF; listed as Homo sapiens) [compound 38]”, the “Gene Expression in tumor samples: Highly over-expressed (++)” value [1, 3] was “AML” and the “Peptide Presentation on cancer entities” value ([2]; Table 8a) was “AML, OC”.

For “208: peptide found in SUCNR1 (gene looked up) (RNRQVATAL; listed as Homo sapiens) [compound 208]”, the “Gene Expression in tumor samples: Highly over-expressed (++)” value [1, 3] was “CCC”, the “Gene Expression … over-expressed (+)” value [1, 4] was “AML” and the “Peptide Presentation on cancer entities” value ([2]; Table 8a) was “CCC, CRC, GBC, HNSCC”.

In the case of “265: peptide found in LOXL3 (gene looked up) (FPRKPYEGRV; listed as Homo sapiens) [compound 265]”, the “Gene Expression in tumor samples: Highly over-expressed (++)” value [1, 3] is reported as “MEL”.

“381: peptide found in TGFBR1 (gene looked up) (APRPRLLLL; listed as Homo sapiens) [compound 381]” was tested, and the “Gene Expression … over-expressed (+)” value [1, 4] was “CCC, GBC, MEL”.

In the case of “360: peptide found in CD70 (gene looked up) (SPASRSISLL; listed as Homo sapiens) [compound 360]”, the “Gene Expression in tumor samples: Highly over-expressed (++)” value [1, 3] is reported as “CLL, NHL”, the “Gene Expression … over-expressed (+)” value [1, 4] is reported as “AML, GC, HNSCC, OC, OSCAR” and the “Gene Expression in tumor samples: very highly over-expressed (+++)” value [1] is reported as “RCC”.

With “248: peptide found in EGFR (gene looked up) (KPYDGIPAS; listed as Homo sapiens) [compound 248]” the “Gene Expression in tumor samples: Highly over-expressed (++)” value [1, 3] was “GBM”.

In the case of “452: peptide found in ENPP3 (gene looked up) (QPVKKNTL; listed as Homo sapiens) [compound 452]”, the “Gene Expression in tumor samples: Highly over-expressed (++)” value [1, 5] is reported as “RCC” and the “Gene Expression … over-expressed (+)” value [1, 6] is reported as “HCC, UEC”.

“62: peptide found in F5 (gene looked up) (KPQSTISGL; listed as Homo sapiens) [compound 62]” was tested, and the “Gene Expression in tumor samples: Highly over-expressed (++)” value [1, 3] was “HCC” and the “Gene Expression … over-expressed (+)” value [1, 4] was “CCC”.

With “277: peptide found in HCAR1 (gene looked up) (MPPLLIVAF; listed as Homo sapiens) [compound 277]” the “Gene Expression in tumor samples: Highly over-expressed (++)” value [1, 3] was “BRCA” and the “Gene Expression … over-expressed (+)” value [1, 4] was “UBC”.

For “458: peptide found in ENPP3 (gene looked up) (VPIPTHYFVVL; listed as Homo sapiens) [compound 458]”, the “Gene Expression in tumor samples: Highly over-expressed (++)” value [1, 5] was “RCC”.

In the case of “298 (RVLLRWISL; listed as Homo sapiens) [compound 298]”, the “Peptide Presentation on cancer entities” value ([2]; Table 8a) is reported as “GBM”.

For “173 (VIINNPISL; listed as Homo sapiens) [compound 173]”, the “Peptide Presentation on cancer entities” value ([2]; Table 8a) was “NSCLCother”.

“494 (LPLRAVNLNL; listed as Homo sapiens) [compound 494]” was tested, and the “Peptide Presentation on cancer entities” value ([2]; Table 8b) was “SCLC”.

In the case of “51 (SPVFYVQTL; listed as Homo sapiens) [compound 51]”, the “Peptide Presentation on cancer entities” value ([2]; Table 8a) is reported as “BRCA”.

With “489 (WPNHIMLVL; listed as Homo sapiens) [compound 489]” the “Peptide Presentation on cancer entities” value ([2]; Table 8b) was “MEL”.

In the case of “369: peptide found in CD70 (gene looked up) (RPYGCVLRAA; listed as Homo sapiens) [compound 369]”, the “Gene Expression in tumor samples: Highly over-expressed (++)” value [1, 3] is reported as “CLL, NHL”, the “Gene Expression … over-expressed (+)” value [1, 4] is reported as “AML, CCC, GBC, GC, HNSCC, OC, OSCAR” and the “Gene Expression in tumor samples: very highly over-expressed (+++)” value [1] is reported as “RCC”.

In the case of “288 (LHAMNSLSAM; listed as Homo sapiens) [compound 288]”, the “Peptide Presentation on cancer entities” value ([2]; Table 8a) is reported as “NHL”.

In the case of “255 (VPSHWMVAL; listed as Homo sapiens) [compound 255]”, the “Peptide Presentation on cancer entities” value ([2]; Table 8a) is reported as “NHL”.

For “461 (MPHLGPGILL; listed as Homo sapiens) [compound 461]”, the “Peptide Presentation on cancer entities” value ([2]; Table 8b) was “MEL”.

With “317 (MPYNSAHHCVV; listed as Homo sapiens) [compound 317]” the “Peptide Presentation on cancer entities” value ([2]; Table 8a) was “CLL, NHL”.

“372 (SPSSASLTL; listed as Homo sapiens) [compound 372]” was tested, and the “Peptide Presentation on cancer entities” value ([2]; Table 8a) was “GBC, NSCLCsquam, OSCAR”.

With “287 (SPIPRPLFL; listed as Homo sapiens) [compound 287]” the “Peptide Presentation on cancer entities” value ([2]; Table 8a) was “BRCA”.

For “213: peptide found in SIGLEC8 (gene looked up) (RPYQDAPVA; listed as Homo sapiens) [compound 213]”, the “Gene Expression in tumor samples: Highly over-expressed (++)” value [1, 3] was “GBM” and the “Gene Expression … over-expressed (+)” value [1, 4] was “NHL, RCC”.

“210 (IPENRVVSY; listed as Homo sapiens) [compound 210]” was tested, and the “Peptide Presentation on cancer entities” value ([2]; Table 8a) was “OSCAR”.

With “SEQ ID No. 22 (LPQLKPAL; listed as Homo sapiens)” the “presentation on various cancer entities” value ([2]; HLA ligands of primary tumor tissue samples, LC-MS) was “head and neck squamous cell carcinoma and esophageal cancer”.

For “105 (RPRYETGVCA; listed as Homo sapiens) [compound 105]”, the “Peptide Presentation on cancer entities” value ([2]; Table 8a) was “CRC”.

With “271 (SPTPVFTTL; listed as Homo sapiens) [compound 271]” the “Peptide Presentation on cancer entities” value ([2]; Table 8a) was “CRC, GBC”.

For “270 (SPRGTTSTL; listed as Homo sapiens) [compound 270]”, the “Peptide Presentation on cancer entities” value ([2]; Table 8a) was “CCC, CRC, GBC, HCC, NHL”.

For “313 (VPLSSYVSI; listed as Homo sapiens) [compound 313]”, the “Peptide Presentation on cancer entities” value ([2]; Table 8a) was “MEL”.

“267 (MPVPGILL; listed as Homo sapiens) [compound 267]” was tested, and the “Peptide Presentation on cancer entities” value ([2]; Table 8a) was “MEL”.

With “328 (LPLHRGDLVI; listed as Homo sapiens) [compound 328]” the “Peptide Presentation on cancer entities” value ([2]; Table 8a) was “CLL”.

“121 (GPFQRAAL; listed as Homo sapiens) [compound 121]” was tested, and the “Peptide Presentation on cancer entities” value ([2]; Table 8a) was “UEC”.

For “380 (SPYPGSAAF; listed as Homo sapiens) [compound 380]”, the “Peptide Presentation on cancer entities” value ([2]; Table 8a) was “BRCA, NSCLCadeno, OSCAR”.

“333 (SVLPRALSL; listed as Homo sapiens) [compound 333]” was tested, and the “Peptide Presentation on cancer entities” value ([2]; Table 8a) was “BRCA”.

With “131 (MPFRNIRSIL; listed as Homo sapiens) [compound 131]” the “Peptide Presentation on cancer entities” value ([2]; Table 8a) was “HCC”.

For “198: peptide found in SIGLEC15 (gene looked up) (LPSPAHAFRAL; listed as Homo sapiens) [compound 198]”, the “Gene Expression in tumor samples: Highly over-expressed (++)” value [1, 3] was “UBC” and the “Gene Expression … over-expressed (+)” value [1, 4] was “HCC, MEL, NHL, OC, PACA, UEC”.

With “322 (RAVPVGSGL; listed as Homo sapiens) [compound 322]” the “Peptide Presentation on cancer entities” value ([2]; Table 8a) was “MEL, NSCLCadeno, NSCLCsquam”.
